According to PubChem BioAssay AID720504 (National Center for Advancing Translational Sciences (NCATS), 2013):
Out of some 360,000 compounds screened, about 10,000 (2.8%) were called active. This list was built around the results that the source calls inconclusive (neither active nor inactive); the mix of calls is not that of the screen. The call rests on the fitted dose curve; in most records, active means well fitted inhibition curve with a large enough effect; inconclusive means small, poorly fitted or top-dose-only effect; inactive means flat fitted curve, though single readings scatter. Potencies beside an inconclusive call are fits to weak or partial responses and may not hold up.

By UniProt entry, the sequences of proteins in these tests, tags left out.
UniProt P53350, whole entry, looked up: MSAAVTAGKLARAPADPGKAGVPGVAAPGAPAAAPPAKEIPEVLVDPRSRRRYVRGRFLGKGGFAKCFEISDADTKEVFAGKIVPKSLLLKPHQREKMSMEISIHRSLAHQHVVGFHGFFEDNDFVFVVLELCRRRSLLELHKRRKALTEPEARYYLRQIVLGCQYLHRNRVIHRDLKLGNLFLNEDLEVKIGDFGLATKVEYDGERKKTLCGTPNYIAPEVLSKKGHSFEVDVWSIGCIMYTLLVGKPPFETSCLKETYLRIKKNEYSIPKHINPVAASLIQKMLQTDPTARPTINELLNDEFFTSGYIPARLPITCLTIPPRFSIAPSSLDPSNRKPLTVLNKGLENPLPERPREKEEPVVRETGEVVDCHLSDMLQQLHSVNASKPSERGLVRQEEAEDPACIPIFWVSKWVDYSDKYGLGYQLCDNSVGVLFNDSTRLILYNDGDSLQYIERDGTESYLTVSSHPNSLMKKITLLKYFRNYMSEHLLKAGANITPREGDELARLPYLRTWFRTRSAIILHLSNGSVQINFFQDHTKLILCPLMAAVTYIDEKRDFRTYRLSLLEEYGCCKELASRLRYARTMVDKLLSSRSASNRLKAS

molecular target: Serine/threonine-protein kinase PLK1 (Homo sapiens) (UniProt P53350); test: qHTS for Inhibitors of PLK1-PDB (polo-like kinase 1 - polo-box domain): Primary Screen; details: Plk1 PBD binding of FITC phosphopeptide, fluorescence polarization; further: nearly all actives have a fitted effect of over 65% in size; on max response, negative = inhibition: series mostly up to about 57 µM
On the % scale 0 is the no-effect control and ±100 the full control effect; potency means the concentration at half of the fitted maximal effect.

Compound | Potency | max response, negative = inhibition
CC(C)c1ccc(S(=O)(=O)c2n[nH]n3c2nc(=O)c2ccccc23)cc1 | inconclusive: 21.2 µM [inhibitor, single point] | 
O=C1ON=C(c2ccccc2)/C1=C\c1ccco1 | active: 9.47 µM | 
COc1cc(/C=N/NC(=O)CCN2CCCCC2)ccc1O | inconclusive: 21.2 µM [inhibitor, single point] | 
O=C(Cc1ccc(-n2cccc2)cc1)N1CCN(c2ccccc2F)CC1 |  | inactive: 1.09%
N#C/C(=C\c1c(Cl)cccc1Cl)c1nc2ccccc2o1 | active: 0.423 µM | 
O=C(O)c1ccc2c(=O)n(Cc3ccccc3)c(SCc3ccc([N+](=O)[O-])cc3)nc2c1 | inconclusive: 37.7 µM [inhibitor, single point] | 
Cc1csc(NC(=O)CCNC(=O)c2ccc([N+](=O)[O-])cc2)n1 |  | inactive: -9.43%
O=S1(=O)CSCS(=O)(=O)C1 | inconclusive: 18.9 µM [inhibitor, partial curve] | 
Cc1ccc(CN2C(=O)N/C(=C\c3ccc(-c4ccc(C(=O)O)cc4C)o3)C2=O)cc1 | inconclusive: 23.8 µM [inhibitor, single point] | 
O=C(COC(=O)c1ccccc1S(=O)(=O)N1CCCCC1)NCC(F)(F)F | inconclusive: 21.2 µM [inhibitor, partial curve] | 
COc1ccc(/C=C2\SC(=S)N(CC(=O)OCC(=O)Nc3cc(Cl)cc(Cl)c3)C2=O)cc1 | inconclusive: 21.2 µM [inhibitor, partial curve] | 
O=C(Cc1cccs1)Nc1ccc(Cl)cc1 | inconclusive: 21.2 µM [inhibitor, single point] | 
Clc1nc2ccccc2cc1-c1nnn(-c2ccccc2Br)n1 | inconclusive: 29.9 µM [inhibitor, partial curve] | 
CC1=CC(=NOC(=O)c2cccc([N+](=O)[O-])c2)C=C(C)C1=O | active: 6.7 µM | 
O=C(/C=C/c1ccc(F)cc1)NC(=S)N1CCCCC1c1cccnc1 (configuration not stated) | inconclusive: 21.2 µM [inhibitor, partial curve] | 
COc1cccc2c1cc1c(=O)n(CC(=O)N3CCCC3)nc(C)n12 | inconclusive: 37.7 µM [inhibitor, single point] | 
CC1(C)CC(=O)C2=C(C1)OC(N)=C(C#N)C2c1ccc[nH]1 (configuration not stated) | inconclusive: 33.6 µM [inhibitor, partial curve] | 
Cc1ccccc1NC(=S)Nc1ccccn1 | inconclusive: 26.7 µM [inhibitor, single point] | 
COc1cc(C(CC(=O)Nc2cc(C)ccn2)N2Cc3ccccc3C2=O)cc(OC)c1OC (configuration not stated) |  | inactive: 1.69%
Cc1cccc(N2CC(C(=O)Nc3nnc(SCc4cccnc4)s3)CC2=O)c1 (configuration not stated) |  | inconclusive: -32.5% [inhibitor]
Cc1ccc(NC(=S)NC2CCN(Cc3ccccc3)CC2)c(C)c1 |  | inactive: 7.19%
NC(=O)c1ccc(NC(=O)CCc2nc3ccccc3s2)cc1 |  | inactive: -13.4%
CC(C)n1c2ccccc2c2nc3ccccc3nc21 | inconclusive: 23.8 µM [inhibitor, partial curve] | 
O=C(Nc1ncn[nH]1)c1ccc(Cl)c(Cl)c1 | inconclusive: 23.8 µM [inhibitor, partial curve] | 

Compound | Potency | max response, negative = inhibition
Cc1ccc(N(Cc2ccccc2F)S(C)(=O)=O)cc1C |  | inactive: -6.41%
Cc1ccccc1N=C1SCCN1C(=O)CN1C(=O)NC2(CCCC2)C1=O |  | inactive: -4.32%
COCCNC(=S)Nc1cc(OC)c(OC)cc1C#N |  | inactive: -10.9%
Cc1cc(C)nc(NS(=O)(=O)c2ccc(NC(=O)CN3C(=O)S/C(=C\c4ccccc4)C3=O)cc2)n1 | inconclusive: 29.9 µM [inhibitor, partial curve] | 
COc1cc(C)ccc1OCc1cc(C(=O)NCc2ccncc2)no1 |  | inactive: -11%
CCn1c(SCC(=O)N/N=C/C=C/c2ccccc2[N+](=O)[O-])nnc1-c1ccccc1 | active: 23.8 µM | 
S=c1[nH]nc(COc2ccccc2)n1/N=C/c1cccnc1 | inconclusive: 21.2 µM [inhibitor, partial curve] | 
COc1ccc(Cc2nn3c(-c4ccccc4OC)nnc3s2)cc1 | inconclusive: 26.7 µM [inhibitor, single point] | 
S=c1nccc(-c2ccc(Cl)cc2)[nH]1 | active: 1.5 µM | 
CC(=O)c1ccc(OC(=O)COc2ccccc2)cc1 | inconclusive: 23.8 µM [inhibitor, partial curve] | 
Cc1ccc(C(c2c(C)[nH][nH]c2=O)c2c(C)[nH][nH]c2=O)cc1[N+](=O)[O-] | inconclusive: 13.4 µM [inhibitor, partial curve] | 
COc1ccccc1C(c1c(O)nc(SC)[nH]c1=O)c1c(O)nc(SC)[nH]c1=O | inconclusive: 26.7 µM [inhibitor, single point] | 
CCCOc1ccc(C(=O)CCN2CCCCC2)cc1 | active: 13.4 µM | 
O=C(c1cc(S(=O)(=O)Nc2ccccc2F)c(Cl)cc1Cl)N1CCN(CCO)CC1 |  | inactive: -13.4%
COC(=O)c1cc(N2CCNCC2)nc2ccccc12 | active: 23.8 µM | 
Cc1ccc(S(=O)(=O)Nc2ccc(C(N)=O)cc2)cc1[N+](=O)[O-] | active: 15 µM | 
COc1ccc(N2CCN(CC(=O)Nc3ncc(C)s3)CC2)cc1 | inconclusive: 18.9 µM [inhibitor, partial curve] | 
S=C(NCCN1CCOCC1)N1CCN(c2cccc(Cl)c2)CC1 |  | inconclusive: -35.5% [inhibitor]
O=S(=O)(NC1CC1)c1ccc(S(=O)(=O)N2CCC3(CC2)OCCO3)cc1 | inconclusive: 23.8 µM [inhibitor, single point] | 
CN1CC(=O)N(CC(=O)Nc2ccc(SC(F)F)cc2)C1=O | inconclusive: 18.9 µM [inhibitor, partial curve] | 
COc1cccc(C2C([N+](=O)[O-])=C(N)Oc3cc(C)oc(=O)c32)c1 (configuration not stated) | inconclusive: 23.8 µM [inhibitor, single point] | 
CCOC(=O)C(=NC(C)(C)C)NNc1cc(Cl)ccc1Cl |  | inactive: -2.67%
O=C(NNC(=O)c1cnccn1)c1cccc([N+](=O)[O-])c1 |  | inactive: -10.1%
Nc1nc(=S)c2ncn([C@@H]3O[C@H](CO)[C@@H](O)[C@H]3O)c2[nH]1 | active: 21.2 µM | 

Compound | Potency | max response, negative = inhibition
N#C/C(=C1\C(=O)Nc2c(Cl)cc(Cl)cc21)c1nnc2n1CCCCC2 | inconclusive: 26.7 µM [inhibitor, single point] | 
O=C(CC1CCOCC1)Nc1ccc(Cl)c(Cl)c1 | inconclusive: 10.6 µM [inhibitor, partial curve] | 
COc1ccc(CCN(C)Cc2cccc3ccccc23)cc1OC |  | inactive: -10.6%
Cn1c(=O)c2c3c(sc2n2cnnc12)CCC3 |  | inactive: -5.62%
CC(C)c1ccc(OCC(=O)Nc2cccc(C(=O)Nc3ccccc3C(=O)O)c2)cc1 | inconclusive: 23.8 µM [inhibitor, single point] | 
C[C@H]1CN([C@@H](C)CO)C(=O)CCCn2cc(nn2)CO[C@@H]1CN(C)S(=O)(=O)c1cccc(C#N)c1 | inconclusive: 37.7 µM [inhibitor, single point] | 
CCOC(=O)c1ccccc1N1C(=O)C2Sc3[nH]c(=O)sc3C(/C=C/c3ccccc3)C2C1=O (configuration not stated) | inconclusive: 26.7 µM [inhibitor, partial curve] | 
COc1ccc(OC)c(Nc2nc(-c3c(C)nc4ncccn34)cs2)c1 |  | inactive: -6.84%
CN(C)c1ccc(C=C2C(=O)OC3(CCCC3)OC2=O)cc1 | inconclusive: 2.38 µM [inhibitor, full curve] | 
CCCCCc1cc(=O)oc2c(C(CCN3CCCC(C)C3)c3ccc(N(C)C)cc3)c(OC)cc(OC)c12 (configuration not stated) |  | inactive: 1.38%
CS(=O)(=O)Nc1ccc(C(=O)Nc2ccc(S(=O)(=O)N3CCCC3)cc2)cc1 | inconclusive: 10.6 µM [inhibitor, partial curve] | 
Cn1c(C(=O)NCc2ccco2)cc2c(=O)[nH]c3ccccc3c21 |  | inconclusive: -33.8% [inhibitor]
O=C(c1ccc(Cl)cc1)C1C2C(=O)N(c3ccccc3)C(=O)C2C2CCCN21 (configuration not stated) | inconclusive: 26.7 µM [inhibitor, partial curve] | 
CCOC(=O)C1CCN(C(=O)C2(NC(=O)Nc3ccccc3Cl)CCCCC2)CC1 |  | inactive: -0.03%
COc1ccc(S(=O)(=O)Nc2cccc(S(=O)(=O)N(C)C)c2)cc1[N+](=O)[O-] |  | inactive: -2%
CCCN1C2=C(C(=O)CC(C)(C)C2)C(c2ccc(F)cc2)C2=C1c1ccccc1C2=O (configuration not stated) | active: 11.9 µM | 
CCOC(=O)C1CCN(C(c2cc(OC)c(OC)c(OC)c2)c2sc3nc(C)nn3c2O)CC1 (configuration not stated) |  | inactive: 1.1%
CCc1nnc(NC(=O)CSc2nc(-c3ccccc3)c(-c3ccccc3)o2)s1 |  | inactive: -1.59%
Cc1ccc(Cl)cc1S(=O)(=O)N1CCC(C(=O)NC2CCN(Cc3ccccc3)CC2)CC1 |  | inactive: 5.96%
O=C(CCS(=O)(=O)c1ccc(Br)cc1)NCc1cccs1 |  | inconclusive: -31.3% [inhibitor]
CCC(=O)Nc1ccc2c(c1)nc1n2CCN(C2CCCCC2)C1 | inconclusive: 21.2 µM [inhibitor, single point] | 
CN1CC(O)(C(O)C(O)C(O)CO)SC1=S (configuration not stated) | active: 21.2 µM | 
COc1cc(-c2cccs2)cc(=O)c2c(C)oc(C)c12 |  | inactive: -0.658%
CCN(CC)c1ccc2cc(-c3nc(-c4ccc(OC)cc4)cs3)c(=O)oc2c1 | inconclusive: 0.947 µM [inhibitor, full curve, poor fit] | 

Compounds from the list above that have a cyano group:
Compound | Potency | max response, negative = inhibition
N#C/C(=C\c1c(Cl)cccc1Cl)c1nc2ccccc2o1 | active: 0.423 µM | 
CC1(C)CC(=O)C2=C(C1)OC(N)=C(C#N)C2c1ccc[nH]1 (configuration not stated) | inconclusive: 33.6 µM [inhibitor, partial curve] | 
COCCNC(=S)Nc1cc(OC)c(OC)cc1C#N |  | inactive: -10.9%
N#C/C(=C1\C(=O)Nc2c(Cl)cc(Cl)cc21)c1nnc2n1CCCCC2 | inconclusive: 26.7 µM [inhibitor, single point] | 
C[C@H]1CN([C@@H](C)CO)C(=O)CCCn2cc(nn2)CO[C@@H]1CN(C)S(=O)(=O)c1cccc(C#N)c1 | inconclusive: 37.7 µM [inhibitor, single point] | 
